Laboratory results: the supplement of paper PMC10849652
The list shows a part of the results.

Protein sequences, listed by entry. Tags and fused reporters are not part of them. Lines headed by an entry give the natural chain unless they say otherwise; changes in a name come on top.
UniProt Q7L8L6: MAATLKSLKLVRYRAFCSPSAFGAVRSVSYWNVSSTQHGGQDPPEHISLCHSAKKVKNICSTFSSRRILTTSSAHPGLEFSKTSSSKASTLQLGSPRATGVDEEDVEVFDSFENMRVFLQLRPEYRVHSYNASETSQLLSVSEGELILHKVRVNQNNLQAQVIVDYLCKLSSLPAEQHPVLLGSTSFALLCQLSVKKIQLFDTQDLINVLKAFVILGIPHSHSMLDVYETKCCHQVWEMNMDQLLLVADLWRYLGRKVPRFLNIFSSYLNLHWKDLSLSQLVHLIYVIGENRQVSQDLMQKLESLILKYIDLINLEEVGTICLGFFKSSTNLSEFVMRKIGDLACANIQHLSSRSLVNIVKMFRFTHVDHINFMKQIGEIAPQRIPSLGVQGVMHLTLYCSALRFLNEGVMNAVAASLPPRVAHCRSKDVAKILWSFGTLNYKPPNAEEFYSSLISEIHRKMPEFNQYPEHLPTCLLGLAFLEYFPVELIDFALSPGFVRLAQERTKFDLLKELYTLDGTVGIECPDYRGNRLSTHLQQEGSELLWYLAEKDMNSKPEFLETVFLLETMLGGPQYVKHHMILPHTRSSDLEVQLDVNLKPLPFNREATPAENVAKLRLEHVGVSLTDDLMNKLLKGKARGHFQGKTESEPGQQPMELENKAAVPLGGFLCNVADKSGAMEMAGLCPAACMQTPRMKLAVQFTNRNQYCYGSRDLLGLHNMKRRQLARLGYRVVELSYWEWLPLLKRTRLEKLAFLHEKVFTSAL
UniProt Q96CD0: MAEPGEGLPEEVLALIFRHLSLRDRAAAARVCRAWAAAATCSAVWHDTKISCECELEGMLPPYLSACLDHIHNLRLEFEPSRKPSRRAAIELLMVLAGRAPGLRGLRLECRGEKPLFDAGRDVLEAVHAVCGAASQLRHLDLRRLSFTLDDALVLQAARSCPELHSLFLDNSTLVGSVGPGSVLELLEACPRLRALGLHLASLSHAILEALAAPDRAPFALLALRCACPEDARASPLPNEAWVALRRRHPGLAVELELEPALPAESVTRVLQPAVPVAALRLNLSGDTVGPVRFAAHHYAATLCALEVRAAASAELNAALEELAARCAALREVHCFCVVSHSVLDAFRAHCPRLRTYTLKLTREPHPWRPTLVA
UniProt Q86UX7, whole entry, looked up: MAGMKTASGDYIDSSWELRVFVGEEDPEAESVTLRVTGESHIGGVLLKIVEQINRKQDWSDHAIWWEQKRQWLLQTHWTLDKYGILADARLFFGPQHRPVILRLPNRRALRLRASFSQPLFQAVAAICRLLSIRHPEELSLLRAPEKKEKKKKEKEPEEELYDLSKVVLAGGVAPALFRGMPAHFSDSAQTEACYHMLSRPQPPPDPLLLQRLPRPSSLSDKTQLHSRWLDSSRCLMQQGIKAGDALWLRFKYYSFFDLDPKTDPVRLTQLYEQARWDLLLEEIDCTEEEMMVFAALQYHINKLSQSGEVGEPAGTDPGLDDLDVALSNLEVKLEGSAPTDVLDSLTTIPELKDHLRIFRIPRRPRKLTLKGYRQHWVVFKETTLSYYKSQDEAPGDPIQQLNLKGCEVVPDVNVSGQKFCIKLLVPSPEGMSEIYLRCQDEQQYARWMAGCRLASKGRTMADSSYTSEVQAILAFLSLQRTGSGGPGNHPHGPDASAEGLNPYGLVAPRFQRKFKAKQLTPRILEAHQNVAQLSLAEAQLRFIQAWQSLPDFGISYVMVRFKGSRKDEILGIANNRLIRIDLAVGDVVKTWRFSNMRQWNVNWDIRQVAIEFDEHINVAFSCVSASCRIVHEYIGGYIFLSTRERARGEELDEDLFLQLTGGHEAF
UniProt O95363: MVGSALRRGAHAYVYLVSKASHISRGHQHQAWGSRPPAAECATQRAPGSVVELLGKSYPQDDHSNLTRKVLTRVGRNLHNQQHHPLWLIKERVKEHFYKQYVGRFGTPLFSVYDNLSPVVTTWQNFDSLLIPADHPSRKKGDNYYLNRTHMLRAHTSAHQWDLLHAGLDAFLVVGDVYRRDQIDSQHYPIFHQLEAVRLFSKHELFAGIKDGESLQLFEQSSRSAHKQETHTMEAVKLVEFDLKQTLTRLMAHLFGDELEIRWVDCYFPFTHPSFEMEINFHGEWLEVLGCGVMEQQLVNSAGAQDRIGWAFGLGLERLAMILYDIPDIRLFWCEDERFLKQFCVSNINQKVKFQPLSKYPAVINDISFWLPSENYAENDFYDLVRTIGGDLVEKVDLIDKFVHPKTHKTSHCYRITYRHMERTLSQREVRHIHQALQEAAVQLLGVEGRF
UniProt P22087: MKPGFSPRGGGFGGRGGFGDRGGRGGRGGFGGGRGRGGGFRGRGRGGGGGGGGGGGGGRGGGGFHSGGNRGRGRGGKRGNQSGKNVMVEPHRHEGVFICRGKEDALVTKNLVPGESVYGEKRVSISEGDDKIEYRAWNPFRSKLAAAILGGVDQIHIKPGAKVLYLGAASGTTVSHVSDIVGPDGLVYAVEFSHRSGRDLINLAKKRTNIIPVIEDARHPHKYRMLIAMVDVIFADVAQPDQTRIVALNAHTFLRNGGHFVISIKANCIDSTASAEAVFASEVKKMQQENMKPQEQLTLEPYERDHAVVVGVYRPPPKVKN
UniProt Q9NSD9: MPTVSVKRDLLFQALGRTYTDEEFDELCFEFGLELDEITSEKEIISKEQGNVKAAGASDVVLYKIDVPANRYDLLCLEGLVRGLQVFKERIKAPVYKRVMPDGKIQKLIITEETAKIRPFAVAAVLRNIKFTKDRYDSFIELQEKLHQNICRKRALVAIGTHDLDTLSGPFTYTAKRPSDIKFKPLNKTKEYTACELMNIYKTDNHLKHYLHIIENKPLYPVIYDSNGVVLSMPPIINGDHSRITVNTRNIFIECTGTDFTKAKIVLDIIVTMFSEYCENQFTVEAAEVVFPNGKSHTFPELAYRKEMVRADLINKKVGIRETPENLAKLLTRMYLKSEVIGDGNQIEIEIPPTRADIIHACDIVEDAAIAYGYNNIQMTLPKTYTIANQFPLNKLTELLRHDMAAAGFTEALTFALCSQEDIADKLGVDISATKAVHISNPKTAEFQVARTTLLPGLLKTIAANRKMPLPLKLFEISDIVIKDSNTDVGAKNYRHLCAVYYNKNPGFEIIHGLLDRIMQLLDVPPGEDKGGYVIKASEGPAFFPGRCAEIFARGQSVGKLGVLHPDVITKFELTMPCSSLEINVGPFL
UniProt O43427: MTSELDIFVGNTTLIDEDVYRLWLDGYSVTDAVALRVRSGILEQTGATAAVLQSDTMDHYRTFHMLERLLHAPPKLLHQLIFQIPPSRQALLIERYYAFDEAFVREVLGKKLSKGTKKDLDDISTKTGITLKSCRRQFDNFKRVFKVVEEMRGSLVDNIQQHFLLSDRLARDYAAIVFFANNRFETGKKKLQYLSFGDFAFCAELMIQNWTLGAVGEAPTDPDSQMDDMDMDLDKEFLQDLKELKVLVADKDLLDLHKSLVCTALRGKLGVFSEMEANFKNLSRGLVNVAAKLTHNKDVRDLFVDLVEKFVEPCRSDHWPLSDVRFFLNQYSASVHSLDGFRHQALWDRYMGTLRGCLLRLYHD
UniProt Q5T1M5: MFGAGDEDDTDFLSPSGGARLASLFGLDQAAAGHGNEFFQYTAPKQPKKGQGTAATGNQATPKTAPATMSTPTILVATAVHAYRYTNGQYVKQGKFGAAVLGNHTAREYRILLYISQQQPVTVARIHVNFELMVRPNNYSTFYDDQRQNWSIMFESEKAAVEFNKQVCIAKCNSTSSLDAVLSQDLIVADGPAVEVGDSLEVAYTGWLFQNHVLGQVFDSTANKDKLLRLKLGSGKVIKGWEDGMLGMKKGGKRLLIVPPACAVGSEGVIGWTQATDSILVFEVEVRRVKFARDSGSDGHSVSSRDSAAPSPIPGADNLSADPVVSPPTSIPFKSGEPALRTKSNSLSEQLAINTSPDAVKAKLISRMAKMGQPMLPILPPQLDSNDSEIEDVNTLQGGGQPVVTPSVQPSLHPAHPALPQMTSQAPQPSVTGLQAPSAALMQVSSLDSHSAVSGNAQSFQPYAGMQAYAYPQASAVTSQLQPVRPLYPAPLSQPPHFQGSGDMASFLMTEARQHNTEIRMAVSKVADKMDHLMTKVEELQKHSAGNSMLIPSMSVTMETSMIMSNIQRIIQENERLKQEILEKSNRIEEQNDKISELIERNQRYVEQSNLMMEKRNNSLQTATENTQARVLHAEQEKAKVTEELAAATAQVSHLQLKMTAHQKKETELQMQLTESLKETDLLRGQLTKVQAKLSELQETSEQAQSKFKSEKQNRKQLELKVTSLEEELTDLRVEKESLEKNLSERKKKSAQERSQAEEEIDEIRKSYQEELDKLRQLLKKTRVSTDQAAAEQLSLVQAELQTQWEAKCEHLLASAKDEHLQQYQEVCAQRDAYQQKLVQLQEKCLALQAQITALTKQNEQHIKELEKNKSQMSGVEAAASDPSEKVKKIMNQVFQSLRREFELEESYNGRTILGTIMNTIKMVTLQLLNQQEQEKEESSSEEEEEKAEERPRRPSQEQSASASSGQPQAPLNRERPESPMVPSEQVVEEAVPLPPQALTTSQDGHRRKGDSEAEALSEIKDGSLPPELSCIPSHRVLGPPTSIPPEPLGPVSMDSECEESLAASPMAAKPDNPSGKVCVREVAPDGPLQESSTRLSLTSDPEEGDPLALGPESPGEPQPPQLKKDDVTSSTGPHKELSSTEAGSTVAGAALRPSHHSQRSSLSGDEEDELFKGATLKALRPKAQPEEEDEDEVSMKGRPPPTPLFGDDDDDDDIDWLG
UniProt P09038, whole entry, looked up: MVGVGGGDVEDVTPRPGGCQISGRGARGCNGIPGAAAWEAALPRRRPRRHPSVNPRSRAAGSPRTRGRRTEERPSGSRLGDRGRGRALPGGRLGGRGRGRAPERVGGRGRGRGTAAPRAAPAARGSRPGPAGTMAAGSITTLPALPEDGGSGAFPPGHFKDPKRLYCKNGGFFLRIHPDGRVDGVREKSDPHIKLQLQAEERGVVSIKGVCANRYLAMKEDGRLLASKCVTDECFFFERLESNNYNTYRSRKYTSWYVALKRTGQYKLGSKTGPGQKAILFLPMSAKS
UniProt O95684: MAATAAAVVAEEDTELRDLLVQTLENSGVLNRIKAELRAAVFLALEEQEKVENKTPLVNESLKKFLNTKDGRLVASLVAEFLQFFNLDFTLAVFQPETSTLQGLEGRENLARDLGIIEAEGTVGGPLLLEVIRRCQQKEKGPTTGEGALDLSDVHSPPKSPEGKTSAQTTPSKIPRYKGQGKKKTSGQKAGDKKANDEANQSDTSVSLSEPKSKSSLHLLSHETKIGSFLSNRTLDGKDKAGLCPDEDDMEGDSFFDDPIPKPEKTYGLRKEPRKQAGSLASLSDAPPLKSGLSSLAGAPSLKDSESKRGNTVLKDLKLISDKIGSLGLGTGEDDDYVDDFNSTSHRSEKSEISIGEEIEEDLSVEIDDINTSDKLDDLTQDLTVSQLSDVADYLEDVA
UniProt Q9UKT5: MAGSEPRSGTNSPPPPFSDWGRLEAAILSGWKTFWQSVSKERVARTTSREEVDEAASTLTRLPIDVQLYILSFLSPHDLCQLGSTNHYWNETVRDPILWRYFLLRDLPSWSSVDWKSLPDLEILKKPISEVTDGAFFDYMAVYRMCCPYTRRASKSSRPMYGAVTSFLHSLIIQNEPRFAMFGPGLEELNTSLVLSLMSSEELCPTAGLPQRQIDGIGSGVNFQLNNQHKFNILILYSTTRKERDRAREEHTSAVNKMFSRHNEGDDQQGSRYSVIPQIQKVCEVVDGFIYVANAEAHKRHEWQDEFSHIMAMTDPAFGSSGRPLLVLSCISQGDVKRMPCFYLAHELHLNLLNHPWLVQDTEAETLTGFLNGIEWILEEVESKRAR
UniProt Q9NRD1: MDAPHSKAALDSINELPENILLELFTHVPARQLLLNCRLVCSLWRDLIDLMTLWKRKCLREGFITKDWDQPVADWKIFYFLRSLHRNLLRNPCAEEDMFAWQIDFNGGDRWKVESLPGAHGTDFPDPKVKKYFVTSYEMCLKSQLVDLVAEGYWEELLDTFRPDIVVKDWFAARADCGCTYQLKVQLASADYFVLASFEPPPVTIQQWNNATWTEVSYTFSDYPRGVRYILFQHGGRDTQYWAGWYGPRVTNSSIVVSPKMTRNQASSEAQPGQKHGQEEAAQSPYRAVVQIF
UniProt P0C2W1: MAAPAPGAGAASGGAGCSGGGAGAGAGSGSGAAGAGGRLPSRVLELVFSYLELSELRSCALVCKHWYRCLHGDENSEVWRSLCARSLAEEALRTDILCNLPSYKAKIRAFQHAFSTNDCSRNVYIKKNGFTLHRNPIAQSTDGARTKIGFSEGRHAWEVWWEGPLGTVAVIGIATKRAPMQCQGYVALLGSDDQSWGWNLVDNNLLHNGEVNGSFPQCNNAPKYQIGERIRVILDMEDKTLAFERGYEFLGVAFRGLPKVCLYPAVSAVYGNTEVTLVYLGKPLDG

What was measured:
Test in all cases: log2 fold change, soluble protein after heating vs DMSO (PISA); higher = thermal stabilisation; K562 lysate, 10 uM; active = over 0.2 and 3.5 SD of the protein, either way, in both replicates (recomputed)
[1] = compound: C#Cc1cccc(Nc2ncnc3cc(OCCOC)c(OCCOC)cc23)c1 [erlotinib]
Method in brief: (§1)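 A 30 min treatment with 10 μM compound was applied to crude K562 extract at 1 mg/mL protein in PBS pH 7.4 with 1 mM MgCl2. Heating for 3 min spanned 48°C-58°C, after which aliquots were pooled, adjusted to 0.5% NP-40 at 4°C and spun at 21,000xg for 90 min. TMTpro 16plex LC-MS/MS of the supernatant, with channel sums equalised, gave values recorded as log-two fold change in thermal stability against solvent controls, from duplicates.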

[2] = compound: C/C(=N\NC(=O)C1=CC(=CC=C1)S(=O)(=O)N2CCOCC2)/C3=C(C=CC(=C3)Cl)O
Method in brief: as §1

[3] = compound: C1=CC(=CC=C1C2=NC3=C(N2)C=C(C=C3)C(=O)N)OC4=CC=C(C=C4)Cl
Method in brief: as §1

[4] = compound: C1=CC2=C(C=CC(=C2)/C=C\3/C(=O)NC(=NCC4=CC=CS4)S3)N=C1
Method in brief: as §1

[5] = compound: C1=CC2=NC=CN=C2C=C1/C=C/3\C(=O)NC(=O)S3
Method in brief: as §1

[6] = compound: C1=CC=C(C=C1)C2=NC(=C(N2)C3=CC=NC=C3)C4=CC(=C(C=C4)Cl)O
Method in brief: as §1

[7] = compound: C1=CC=C2C(=C1)C3=NNC4=CC=CC(=C43)C2=O
Method in brief: as §1

[8] = compound: C1CCN(C1)C(=O)NC2=CC=CC(=C2)NC3=NC=C(C(=N3)NCCC4=CN=CN4)Br
Method in brief: as §1

[9] = compound: C1CN(CCC1(CC2=CC=C(C=C2)Cl)N)C3=NC=NC4=C3C=CN4
Method in brief: as §1

[10] = compound: C1COCCN1CCN2C3=CC=CC=C3N=C2NC(=O)C4=CC(=CC=C4)[N+](=O)[O-] [IRAK-1-4 Inhibitor I]
Method in brief: as §1

Measured: log2 fold change

FASTKD5 (UniProt Q7L8L6)
inactive: [1] 0.061 | [2] 0.019 | [3] -0.054 | [4] 0.023 | [5] 0.013 | [6] -0.014 | [7] -0.066 | [8] -0.047 | [9] 0.013 | [10] -0.019

FANCI (UniProt Q9NVI1)
inactive: [1] 0.012 | [2] -0.031 | [3] -0.056 | [4] 0.013 | [5] 0.021 | [6] -0.001 | [7] -0.051 | [8] -0.008 | [9] -0.009 | [10] 0.013

FANCB (UniProt Q8NB91)
inactive: [1] -0.023 | [2] -0.059 | [3] 0.039 | [4] -0.115 | [5] 0.042 | [6] -0.044 | [7] -0.075 | [8] 0.028 | [9] 0.013 | [10] 0.031

FBXL8 (UniProt Q96CD0)
inactive: [1] 0.043 | [2] -0.096 | [3] -0.023 | [4] -0.067 | [5] 0.025 | [6] -0.02 | [7] -0.054 | [8] -0.011 | [9] -0.124 | [10] 0.06

FAM8A1 (UniProt Q9UBU6)
inactive: [1] -0.065 | [2] 0.165 | [3] -0.013 | [4] 0.042 | [5] 0.02 | [6] 0.006 | [7] -0.024 | [8] 0.01 | [9] -0.029 | [10] 0.07

FERMT3 (UniProt Q86UX7)
inactive: [1] 0.011 | [2] 0.01 | [3] 0.007 | [4] -0.008 | [5] 0 | [6] 0.002 | [7] -0.017 | [8] -0.025 | [9] 0.005 | [10] 0.008

FEM1B (UniProt Q9UK73)
inactive: [1] 0.032 | [2] -0.068 | [3] 0.008 | [4] -0.059 | [5] -0.024 | [6] -0.022 | [7] -0.005 | [8] -0.078 | [9] 0.036 | [10] 0.051

FERMT2 isoform 3 (UniProt Q96AC1)
inactive: [1] -0.01 | [2] 0.063 | [3] -0.046 | [4] 0.008 | [5] 0.014 | [6] -0.051 | [7] 0.026 | [8] 0.023 | [9] 0.02 | [10] 0.006

FBXO2 (UniProt Q9UK22)
inactive: [1] -0.012 | [2] -0.092 | [3] 0.051 | [4] -0.13 | [5] -0.085 | [6] -0.018 | [7] 0.056 | [8] 0.002 | [9] 0.02 | [10] -0.122

FLNA (UniProt P21333)
inactive: [1] 0.013 | [2] 0.044 | [3] 0.006 | [4] -0.011 | [5] -0.002 | [6] -0.003 | [7] 0.002 | [8] -0.002 | [9] 0.013 | [10] 0.015

FARS2 (UniProt O95363)
inactive: [1] -0.029 | [2] -0.058 | [3] -0.128 | [4] -0.006 | [5] -0.12 | [6] -0.094 | [7] -0.12 | [8] 0.087 | [9] 0.11 | [10] 0.19

FKBP14 (UniProt Q9NWM8)
inactive: [1] -0.005 | [2] 0.022 | [3] 0.032 | [4] -0.011 | [5] 0.005 | [6] -0.03 | [7] -0.004 | [8] -0.004 | [9] -0.017 | [10] 0.015

FBL (UniProt P22087)
inactive: [1] 0 | [2] -0.014 | [3] 0.002 | [4] 0.018 | [5] -0.022 | [6] -0.002 | [7] -0.006 | [8] -0.017 | [9] -0.035 | [10] -0.041

FARSB (UniProt Q9NSD9)
inactive: [1] -0.004 | [2] 0.019 | [3] -0.007 | [4] -0.01 | [5] -0.02 | [6] 0.039 | [7] -0.021 | [8] -0.004 | [9] 0.011 | [10] -0.027

FAM91A1 (UniProt Q658Y4)
inactive: [1] 0.006 | [2] 0.001 | [3] 0.033 | [4] 0.024 | [5] 0.058 | [6] -0.023 | [7] 0.054 | [8] 0.01 | [9] 0.001 | [10] 0.023

FNIP1 isoform 3 (UniProt Q8TF40)
inactive: [1] -0.108 | [2] -0.226 | [3] 0.007 | [4] 0.031 | [5] -0.041 | [6] 0.009 | [7] -0.017 | [8] 0.007 | [9] 0.012 | [10] -0.003

FIBP (UniProt O43427)
inactive: [1] -0.071 | [2] -0.027 | [3] 0.022 | [4] 0.067 | [5] 0.018 | [6] 0.041 | [7] 0.079 | [8] -0.064 | [9] 0.029 | [10] 0.006

FLOT2 (UniProt Q14254)
inactive: [1] 0.008 | [2] 0.048 | [3] 0.039 | [4] -0.021 | [5] -0.015 | [6] -0.014 | [7] 0.029 | [8] -0.008 | [9] 0.002 | [10] 0.027

FKBP15 (UniProt Q5T1M5)
inactive: [1] 0.039 | [2] 0.008 | [3] 0.017 | [4] 0.016 | [5] -0.017 | [6] 0.001 | [7] 0.023 | [8] 0.021 | [9] -0.004 | [10] 0.009

Quoted from the results shown (two entries):
FBXO2 (UniProt Q9UK22)
inactive: [1] -0.012 | [2] -0.092 | [3] 0.051 | [4] -0.13 | [5] -0.085 | [6] -0.018 | [7] 0.056 | [8] 0.002 | [9] 0.02 | [10] -0.122

FLNA (UniProt P21333)
inactive: [1] 0.013 | [2] 0.044 | [3] 0.006 | [4] -0.011 | [5] -0.002 | [6] -0.003 | [7] 0.002 | [8] -0.002 | [9] 0.013 | [10] 0.015

Additional results follow:

FGF2 (UniProt P09038)
inactive: [1] -0.027 | [2] 0.063 | [3] -0.081 | [4] 0.049 | [5] 0.025 | [6] 0.021 | [7] -0.009 | [8] -0.003 | [9] 0.058 | [10] -0.01

FGFR1OP (UniProt O95684)
inactive: [1] 0.005 | [2] -0.072 | [3] 0.009 | [4] -0.012 | [5] 0.004 | [6] 0.01 | [7] 0.006 | [8] 0.035 | [9] 0.008 | [10] 0.017

FBXO4 (UniProt Q9UKT5)
inactive: [1] -0.005 | [2] -0.014 | [3] -0.026 | [4] -0.005 | [5] 0.003 | [6] -0.015 | [7] -0.024 | [8] 0 | [9] -0.029 | [10] -0.012

FBXO6 (UniProt Q9NRD1)
inactive: [1] -0.001 | [2] 0.074 | [3] 0.019 | [4] 0.041 | [5] 0.036 | [6] 0.024 | [7] 0.002 | [8] -0.05 | [9] 0.027 | [10] -0.02

FLT4 (UniProt P35916)
inactive: [1] 0.047 | [2] 0.036 | [3] 0.038 | [4] 0.039 | [5] 0.075 | [6] 0.046 | [7] 0.044 | [8] -0.097 | [9] 0.087 | [10] -0.029

FBXO44 isoform 2 (UniProt Q9H4M3)
inactive: [1] 0.077 | [2] -0.152 | [3] 0.135 | [4] -0.011 | [5] 0.128 | [6] 0.03 | [7] -0.047 | [10] -0.104

FBXO45 (UniProt P0C2W1)
inactive: [1] 0.077 | [2] 0.016 | [3] -0.033 | [4] 0.092 | [5] -0.099 | [6] -0.126 | [7] -0.069 | [8] 0.018 | [9] 0.01 | [10] -0.043

FHOD1 (UniProt Q9Y613)
inactive: [1] 0.005 | [2] 0.021 | [3] 0 | [4] 0.048 | [5] -0.02 | [6] -0.011 | [7] -0.016 | [8] -0.011 | [9] -0.009 | [10] -0.008
